Data published in PubChem BioAssay AID1347426 (Functional Genomics Laboratory (NCATS/FGL), 2020).
Out of some 31,000 sequences screened, about 1,400 (4.5%) were called active.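 How the source made its calls: active means median seed-adjusted z-score above 1 or below -1; inactive means the rest.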 Some of the results follow.

assay: Novel Modifiers of Survival Motor Neuron (SMN) Protein: Gene Identification via Genome-wide siRNA Screen; conditions: HEK293T SMN2-luciferase reporter, siRNA knockdown, 72 h; actives lie on both sides;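 further: luminescence tracks full-length SMN protein made from the SMN2 reporter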
Procedure, shortened: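 Luciferase signal, proportional to full-length SMN made from an SMN2 cDNA reporter in stable HEK293T cells, was read 72 h after siRNA reverse transfection. Values were expressed as MAD scores after non-targeting-control normalization and log10 conversion; seed analysis flagged off-targets.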

Row | Sequence | median seed-adjusted z-score
1 | GACACUUUCUACAUCAAAATT against CRABP2 | inactive: 0.0092
2 | GAAUAGAGAUCAAAUUCCATT against CD163 | inactive: 0.021
3 | GGAUCAGCCGAGGAUGAAATT against PPP1R15A | inactive: 0.539
4 | GCCUCCGAAUCAACCGUUATT against RABGEF1 | inactive: 0.278
5 | ACAAGACGACCUACAAUAATT against PLA2G2A | inactive: 0.809
6 | AGUUUAUUCCCUUAUCAGATT against COPS8 | inactive: 0.148
7 | GUUUGAAUGCGGUGUAGAATT against LOC158381 | inactive: 0
8 | CAUCGGUGUCUAUACUACATT against CXCL16 | inactive: 0.201
9 | CUCUCUUAGUGUCCUUAGATT against PCDHGC4 | inactive: 0.301
10 | GCACCAUAGACUUUCGGGATT against HPCA | inactive: 0.12
11 | GCUACAACAUCCAGCCUAATT against STON1-GTF2A1L | inactive: 0.294
12 | CAACCUCUAGAAUCCCGUATT against EHHADH | inactive: 0.0626
13 | CAGCUGUAGUUCUAACUAUTT against ZNF23 | inactive: -0.106
14 | CCUUGCACCAGGCACAAAATT against CLCNKA | inactive: -0.398
15 | GAACUGCAAGAUGAAGUUUTT against CHRNA2 | inactive: -0.513
16 | CUUGGACAAUUACAUCUAATT against SEL1L2 | inactive: -0.342
17 | GGGACGGAAUAAAUGCUCUTT against NDUFA13 | inactive: -0.138
18 | CCUACAACAAUAAAACGGATT against NEK5 | inactive: 0.0403
19 | ACUCCUCUGUGAACCUACUTT against ASIP | inactive: -0.23
20 | CAUCAAUCAUGAGGGCCUATT against ADCY4 | inactive: -0.0551
21 | GGUCUACUUCUACUACAAUTT against UTY | inactive: -0.538
22 | CAACGAUCGUGAAAGAAUUTT against ARF4 | inactive: 0.346
23 | UGUCAGGUAUGGGUUCGAATT against ABCG1 | inactive: -0.609

Reprinted at random: four records from the list, in no set order.
Row | Sequence | median seed-adjusted z-score
17 | GGGACGGAAUAAAUGCUCUTT against NDUFA13 | inactive: -0.138
3 | GGAUCAGCCGAGGAUGAAATT against PPP1R15A | inactive: 0.539
10 | GCACCAUAGACUUUCGGGATT against HPCA | inactive: 0.12
5 | ACAAGACGACCUACAAUAATT against PLA2G2A | inactive: 0.809

Continued.

Row | Sequence | median seed-adjusted z-score
24 | CAUCCUCAGUAAAUCGAGATT against DHX29 | inactive: -0.28
25 | GCACUCAUGUCAUACUGAATT against LIPA | inactive: 0.535
26 | GCAUUACACCACUCAGUAUTT against TMPRSS3 | inactive: -0.554
27 | UGCGAGAUGUGGUAACGAATT against TRAP1 | inactive: -0.637
28 | UAACAGGAGCUGUAUUUAATT against AQP11 | inactive: -0.0455
29 | GGCUGGUACCUGGAUGAGATT against FTCD | inactive: -0.27
30 | GCACCGUUCAAAUACUUAUTT against PCDHA2 | inactive: 0.803
31 | GAAUACAGGCCUCAUUGAATT against ZKSCAN3 | inactive: 0
32 | GCAGUUUGCCGAGAUGUAUTT against EEF2 | inactive: -0.159
33 | CCAAAUCAGUCUGAAAGUATT against IL10RA | inactive: 0.156
34 | AAAAGAAAAGUAUCGUGUATT against CDX4 | inactive: 0.181
35 | CAGGCGUGGUAUUCAGGGATT against APRT | inactive: 0.0278
36 | GACAAUACGUCAGGAAAUATT against AREG | inactive: 0.104
37 | CCACCUUCCAAAAUAGCGATT against LIFR | inactive: 0.031
38 | GAACUAUCACUUACAGAGATT against ZNF148 | inactive: 0.307
39 | CCAACGCAAAUAAACCGAATT against NCOA6 | inactive: -0.0197
40 | GGCUCGUCGUACUCCAUCATT against PAX5 | inactive: 0.285
41 | GGAGGGUGGGUGAAUUCCATT against DNAJC4 | inactive: 0.566
42 | CCAUCUAUGUAAUUCAACATT against LRRC19 | inactive: -0.062
43 | GGAACUCUCUAAAAAGGAATT against TXNDC5 | inactive: -0.753
44 | GCUGGAUUCUGGACCAUUUTT against FOXN2 | inactive: 0.0947
45 | CCCAGGCUCUCAAAACCAATT against EPN2 | inactive: -0.00173
46 | GGAAGACCAUGACUUACCATT against SPIC | inactive: 0.379

Row | Sequence | median seed-adjusted z-score
47 | AACUGUUAGGUGUCUGAUATT against TCF15 | inactive: -0.361
48 | CGGUCCUAGUGGAACUACUTT against PCDHA10 | inactive: 0.0404
49 | CCGAGACCUUGAGACCAUATT against XPC | inactive: -0.564
50 | GGAGUUAUAUUUAGUGAUATT against ABCA10 | inactive: -0.104
51 | GCUUUGUCACAUAACGUGATT against SLC38A2 | active: -1.04
52 | GAUUUCACCUCAGUCGUUATT against MGAM | inactive: 0.312
53 | GCCUUCACGUCUGAACAUATT against GAD2 | inactive: 0.0588
54 | GUAGUAACCUUGCAAGAUUTT against USP33 | inactive: -0.63
55 | GAACUCUCUUGUGACCUUATT against IL22RA2 | inactive: -0.147
56 | CCAAAACUGUCUACGCAAATT against GRK1 | inactive: 0.0807
57 | GGCGAUUAGGAAACAUGAATT against PRKX | inactive: 0.0341
58 | GUAAACGAGUUGUUCCAUUTT against TMPRSS11A | inactive: 0
59 | AGAUGUACGAGGAAAAGUATT against WNK4 | inactive: 0.385
60 | UGUUUUCAAUUUAAUCAGATT against G6PC2 | inactive: -0.0362
61 | ACAUCGUUACGCUACAUGATT against PCTK1 | inactive: -0.729
62 | CAGGCGAUCUGCAUACUUUTT against CSF3R | inactive: -0.491
63 | GGUUGUGAUCAGUCCAUCATT against ABHD14B | inactive: -0.175
64 | GCAGCCUAAUAUUUGAUUUTT against LCN9 | inactive: -0.897
65 | GGAGAAGAAUGAGCAACUUTT against ADAM19 | inactive: 0.0996
66 | CUGGGUCACUGGUGUUUGATT against ATF3 | inactive: -0.000485
67 | GCAUCGACCUUGCAGUCUATT against SLC25A25 | inactive: -0.668
68 | CAAAUUGAGUCACUCUUAATT against MGAT2 | inactive: -0.124
